# Hit rate of the full screen: of about 310,000 compounds, about 17,000 (5.5%) were called active. Inconclusive means that the source gave no clear call. Such entries were picked first, then a sample of the others. Calls follow the shape of the dose curve; as a rule, active = well fitted inhibition curve with a large enough effect; inconclusive = small, poorly fitted or top-dose-only effect, or effect the other way; inactive = no such curve, though single readings can be large or run the other way. Potencies beside an inconclusive call are fits to weak or partial responses and may not hold up.
# By UniProt entry, the sequences of proteins in these tests, tags left out. Where a name states a change or a piece, a line headed by the entry shows the natural chain unless it says otherwise.
# UniProt P51450: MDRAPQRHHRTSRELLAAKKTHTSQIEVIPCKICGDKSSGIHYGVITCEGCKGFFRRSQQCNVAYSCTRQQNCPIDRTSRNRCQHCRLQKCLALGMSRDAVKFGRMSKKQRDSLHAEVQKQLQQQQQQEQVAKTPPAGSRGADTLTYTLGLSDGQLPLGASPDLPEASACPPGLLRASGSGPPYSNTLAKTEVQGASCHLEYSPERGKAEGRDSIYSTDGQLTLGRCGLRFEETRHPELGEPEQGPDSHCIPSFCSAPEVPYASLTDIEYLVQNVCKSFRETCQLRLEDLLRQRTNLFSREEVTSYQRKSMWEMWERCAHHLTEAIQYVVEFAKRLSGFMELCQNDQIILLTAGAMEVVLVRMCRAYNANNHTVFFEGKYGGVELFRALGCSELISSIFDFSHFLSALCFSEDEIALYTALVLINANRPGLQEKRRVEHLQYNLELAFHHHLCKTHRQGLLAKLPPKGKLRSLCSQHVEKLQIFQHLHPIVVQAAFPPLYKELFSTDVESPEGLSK
# Biological target: Nuclear receptor ROR-gamma (Mus musculus) (UniProt P51450)
# Assay: qHTS for inhibitors of ROR gamma transcriptional activity; also: nearly all actives have a fitted effect of over 60% in size
# Conditions: Drosophila S2 Gal4-RORgamma UAS-luciferase reporter, 20 h; series mostly up to 53.6 µM
# Method in brief: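 Luminescence from a UAS-regulated Photinus luciferase reporter in stably transfected Drosophila Schneider cells is measured; decreased signal marks ROR gamma inhibition. Fusion expression is induced by 700 uM copper sulfate for 20 hr.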
# Potency is read from the fitted curve at half-maximal effect.
row,Structure (SMILES),Potency
1,Cc1ccc(-n2c(C)n[nH]c2=S)cc1C,active: 11.2 µM
2,O=C(c1cc2nc(-c3ccco3)cc(C(F)(F)F)n2n1)N1CCN(c2ccccc2)CC1,"inconclusive: 12.6 µM [activator, single point]"
3,Cc1cc(C)c(C)c(S(=O)(=O)N2CCCN(C)CC2)c1C,"inconclusive: 22.4 µM [inhibitor, single point]"
4,COc1ccccc1N(CC(=O)NCc1ccccc1C)S(=O)(=O)c1ccc(C)cc1,"inconclusive: 22.4 µM [activator, single point]"
5,Cc1cccc(NC(=S)N/N=C2\CC(C)(C)Oc3ccc(O)cc32)c1,active: 4.47 µM
6,COc1ccc(CCNC(=O)C(=O)NCC2OCCN2S(=O)(=O)c2cc(F)ccc2F)cc1OC (centres undefined),inactive
7,CCCCCCOc1ccc(C(=N)N(CCCC)CCCC)c2ccccc12,"inconclusive: 35.5 µM [inhibitor, single point]"
8,O=C(Nc1ccccc1Cl)C1CCCN(S(=O)(=O)c2ccc(-n3cnnn3)cc2)C1 (centres undefined),"inconclusive: 14.1 µM [activator, partial curve]"
9,COc1ccc(NC(=O)CN(C)C(=O)Cc2ccc3c(c2)CCC3)cc1,"inconclusive: 35.5 µM [inhibitor, single point]"
10,CCn1c(CCc2ccccc2)n[nH]c1=S,active: 8.91 µM
11,O=C(N/N=C/c1cn(-c2cccs2)nc1-c1ccccc1)c1ccccc1O,active: 0.0282 µM
12,Cc1ccc(S(=O)(=O)Nc2cccnc2Oc2ccc(Cl)cc2)cc1,"inconclusive: 35.5 µM [activator, single point]"
13,C=C(C(=O)c1ccccc1)C(c1ccccc1)C(C)C(=O)c1ccccc1 (centres undefined),active: 2.82 µM
14,Cc1ccc(-c2nc(CN(C)Cc3cccc4cnccc34)c(C)o2)s1,"inconclusive: 35.5 µM [inhibitor, single point]"
15,COC(=O)c1cccc(S(=O)(=O)N2CCC(NC(=O)NC34CC5CC(CC(C5)C3)C4)CC2)c1,"inconclusive: 11.2 µM [activator, partial curve]"
16,S=C(NCc1ccco1)Nc1cc(-c2ccccc2)[nH]n1,active: 6.31 µM
17,N#C/C(=N\Nc1ccc(Cl)cc1)C(=O)c1ccsc1,"inconclusive: 3.98 µM [activator, single point]"
18,CCOc1ccccc1-c1nnc2n1N=C(c1cccc(OC)c1)CS2,"inconclusive: 14.1 µM [inhibitor, single point]"
19,c1ccc2c(C[n+]3csc4ccccc43)cccc2c1,"inconclusive: 35.5 µM [inhibitor, single point]"

# Rewritten with bars between the fields: five of the compounds above
row | Structure (SMILES) | Potency
3 | Cc1cc(C)c(C)c(S(=O)(=O)N2CCCN(C)CC2)c1C | inconclusive: 22.4 µM [inhibitor, single point]
6 | COc1ccc(CCNC(=O)C(=O)NCC2OCCN2S(=O)(=O)c2cc(F)ccc2F)cc1OC (centres undefined) | inactive
11 | O=C(N/N=C/c1cn(-c2cccs2)nc1-c1ccccc1)c1ccccc1O | active: 0.0282 µM
12 | Cc1ccc(S(=O)(=O)Nc2cccnc2Oc2ccc(Cl)cc2)cc1 | inconclusive: 35.5 µM [activator, single point]
13 | C=C(C(=O)c1ccccc1)C(c1ccccc1)C(C)C(=O)c1ccccc1 (centres undefined) | active: 2.82 µM
